Results are given in words; binding and its absence hold for the method and conditions named. In cells and extracts the contact can be indirect. Some results given as binding are weak or reduced against the parent protein; the word gives no strength. For some assays here: Sequences can lack the tags named with a protein.
Key:
[1] = target: T1, short fragment of Cep192 (aa 1501–1860), Flag-tagged (human) (UniProt Q8TEP8); test: co-IP; U2OS cells transfected with Flag-Cep192 full length or deletion mutants for 24 h; Flag M2 agarose, 2 h or overnight at 4 °C; lysis buffer 20 mM Tris/HCl pH 7.5, 50 mM NaCl, 1% TritonX-100, 5 mM EGTA, 1 mM DTT, 2 mM MgCl2; blot for endogenous Cep295; the full-length result was also obtained in 293T cells
T1 sequence: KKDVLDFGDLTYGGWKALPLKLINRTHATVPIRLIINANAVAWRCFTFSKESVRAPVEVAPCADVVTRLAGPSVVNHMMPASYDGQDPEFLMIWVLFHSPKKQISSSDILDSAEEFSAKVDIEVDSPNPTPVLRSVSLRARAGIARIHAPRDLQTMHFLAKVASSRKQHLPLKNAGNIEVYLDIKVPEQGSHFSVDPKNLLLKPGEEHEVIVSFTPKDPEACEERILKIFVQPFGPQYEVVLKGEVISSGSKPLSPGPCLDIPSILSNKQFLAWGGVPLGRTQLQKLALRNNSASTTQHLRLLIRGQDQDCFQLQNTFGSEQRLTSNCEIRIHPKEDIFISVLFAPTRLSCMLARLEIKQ

The chains behind the UniProt entries cited, without tags or fusion partners.
UniProt Q9C0D2: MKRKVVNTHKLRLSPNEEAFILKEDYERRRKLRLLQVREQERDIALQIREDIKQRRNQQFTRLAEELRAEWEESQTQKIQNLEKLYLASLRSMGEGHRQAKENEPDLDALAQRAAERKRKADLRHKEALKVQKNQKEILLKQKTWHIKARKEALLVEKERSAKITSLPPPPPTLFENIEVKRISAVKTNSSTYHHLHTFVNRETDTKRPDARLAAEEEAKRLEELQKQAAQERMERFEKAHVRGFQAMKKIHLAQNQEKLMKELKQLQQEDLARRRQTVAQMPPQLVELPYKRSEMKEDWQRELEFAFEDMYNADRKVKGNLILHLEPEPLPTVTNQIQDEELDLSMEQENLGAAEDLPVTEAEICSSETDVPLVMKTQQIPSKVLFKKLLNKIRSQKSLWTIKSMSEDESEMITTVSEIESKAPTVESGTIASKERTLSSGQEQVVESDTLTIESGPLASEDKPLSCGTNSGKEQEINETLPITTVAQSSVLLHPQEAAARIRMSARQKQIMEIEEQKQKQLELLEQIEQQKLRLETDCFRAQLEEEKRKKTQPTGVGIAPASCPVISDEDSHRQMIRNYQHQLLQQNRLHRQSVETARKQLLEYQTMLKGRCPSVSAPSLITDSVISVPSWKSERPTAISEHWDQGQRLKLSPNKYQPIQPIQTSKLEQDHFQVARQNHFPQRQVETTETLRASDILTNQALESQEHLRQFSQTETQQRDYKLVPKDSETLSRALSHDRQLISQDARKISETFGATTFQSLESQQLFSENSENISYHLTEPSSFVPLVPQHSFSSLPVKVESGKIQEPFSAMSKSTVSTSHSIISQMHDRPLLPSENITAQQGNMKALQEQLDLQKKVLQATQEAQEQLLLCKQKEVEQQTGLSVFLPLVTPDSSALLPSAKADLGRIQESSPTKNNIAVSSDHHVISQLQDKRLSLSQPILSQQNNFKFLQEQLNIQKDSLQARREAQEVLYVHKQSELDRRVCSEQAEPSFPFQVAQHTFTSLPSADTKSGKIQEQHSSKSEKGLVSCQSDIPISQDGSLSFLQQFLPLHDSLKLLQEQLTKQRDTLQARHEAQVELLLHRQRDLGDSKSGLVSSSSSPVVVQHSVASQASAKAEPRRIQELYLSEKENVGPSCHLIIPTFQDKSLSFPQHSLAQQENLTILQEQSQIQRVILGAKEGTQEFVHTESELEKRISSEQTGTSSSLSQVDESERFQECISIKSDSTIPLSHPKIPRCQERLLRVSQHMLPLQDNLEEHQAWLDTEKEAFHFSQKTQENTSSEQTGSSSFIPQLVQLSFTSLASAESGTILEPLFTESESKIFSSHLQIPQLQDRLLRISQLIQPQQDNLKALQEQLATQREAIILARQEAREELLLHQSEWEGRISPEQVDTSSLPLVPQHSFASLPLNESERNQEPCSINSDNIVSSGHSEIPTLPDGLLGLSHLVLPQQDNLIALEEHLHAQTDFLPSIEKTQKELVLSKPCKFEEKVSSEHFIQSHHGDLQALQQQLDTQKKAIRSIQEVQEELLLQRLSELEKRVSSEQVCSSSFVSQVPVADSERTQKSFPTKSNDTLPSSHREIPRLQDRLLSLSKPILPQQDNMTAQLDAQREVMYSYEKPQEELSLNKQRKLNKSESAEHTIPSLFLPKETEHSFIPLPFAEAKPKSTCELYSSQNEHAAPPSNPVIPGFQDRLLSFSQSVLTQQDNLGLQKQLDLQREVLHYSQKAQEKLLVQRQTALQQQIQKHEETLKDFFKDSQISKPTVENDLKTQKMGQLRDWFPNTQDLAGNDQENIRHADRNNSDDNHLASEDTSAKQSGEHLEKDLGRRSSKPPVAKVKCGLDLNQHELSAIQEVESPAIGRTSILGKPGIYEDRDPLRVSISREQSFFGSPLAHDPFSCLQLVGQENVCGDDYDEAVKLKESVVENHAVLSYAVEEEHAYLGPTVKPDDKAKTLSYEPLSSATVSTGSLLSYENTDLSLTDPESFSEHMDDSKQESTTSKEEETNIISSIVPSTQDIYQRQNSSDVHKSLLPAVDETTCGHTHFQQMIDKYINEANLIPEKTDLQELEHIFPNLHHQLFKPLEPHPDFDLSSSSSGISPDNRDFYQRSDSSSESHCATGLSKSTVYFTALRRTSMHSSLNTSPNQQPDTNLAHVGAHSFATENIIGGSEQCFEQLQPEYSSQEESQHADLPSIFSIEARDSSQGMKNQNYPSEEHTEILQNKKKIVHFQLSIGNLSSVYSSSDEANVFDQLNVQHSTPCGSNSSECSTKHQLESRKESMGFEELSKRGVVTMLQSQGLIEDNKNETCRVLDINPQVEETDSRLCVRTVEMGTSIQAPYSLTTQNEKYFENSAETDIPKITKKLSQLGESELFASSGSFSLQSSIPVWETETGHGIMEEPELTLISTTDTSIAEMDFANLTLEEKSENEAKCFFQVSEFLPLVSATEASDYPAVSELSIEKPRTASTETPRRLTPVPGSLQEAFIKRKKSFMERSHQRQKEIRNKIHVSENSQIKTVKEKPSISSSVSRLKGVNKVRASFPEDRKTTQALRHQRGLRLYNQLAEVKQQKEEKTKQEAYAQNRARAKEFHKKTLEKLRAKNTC

[2] = target: Flag-tagged full-length Cep192 (centrosomal protein of 192 kDa) (human) (UniProt Q8TEP8); test: as above

binding [1]: binds
binding [2]: binds
Substance: endogenous Cep295 (centrosomal protein of 295 kDa) (from UniProt Q9C0D2 1-2601)

— publication PMC5007451
